Results are given in words; binding and its absence hold for the method and conditions named. In cells and extracts the contact can be indirect. Some entries that bind do so weakly or less than the wild type.
Tests used:
[1] = target: T1, hexokinase 2 (HK2) (human (endogenous in A2780)) (UniProt P52789); assay: co-IP; A2780 cells transfected with wt-p62 or ΔUBA-p62, cisplatin 5 μg/mL 12 h; NP40 lysis buffer; immunoprecipitation with anti-HK2 and protein G agarose, blot anti-p62 and anti-HK2
T1 sequence: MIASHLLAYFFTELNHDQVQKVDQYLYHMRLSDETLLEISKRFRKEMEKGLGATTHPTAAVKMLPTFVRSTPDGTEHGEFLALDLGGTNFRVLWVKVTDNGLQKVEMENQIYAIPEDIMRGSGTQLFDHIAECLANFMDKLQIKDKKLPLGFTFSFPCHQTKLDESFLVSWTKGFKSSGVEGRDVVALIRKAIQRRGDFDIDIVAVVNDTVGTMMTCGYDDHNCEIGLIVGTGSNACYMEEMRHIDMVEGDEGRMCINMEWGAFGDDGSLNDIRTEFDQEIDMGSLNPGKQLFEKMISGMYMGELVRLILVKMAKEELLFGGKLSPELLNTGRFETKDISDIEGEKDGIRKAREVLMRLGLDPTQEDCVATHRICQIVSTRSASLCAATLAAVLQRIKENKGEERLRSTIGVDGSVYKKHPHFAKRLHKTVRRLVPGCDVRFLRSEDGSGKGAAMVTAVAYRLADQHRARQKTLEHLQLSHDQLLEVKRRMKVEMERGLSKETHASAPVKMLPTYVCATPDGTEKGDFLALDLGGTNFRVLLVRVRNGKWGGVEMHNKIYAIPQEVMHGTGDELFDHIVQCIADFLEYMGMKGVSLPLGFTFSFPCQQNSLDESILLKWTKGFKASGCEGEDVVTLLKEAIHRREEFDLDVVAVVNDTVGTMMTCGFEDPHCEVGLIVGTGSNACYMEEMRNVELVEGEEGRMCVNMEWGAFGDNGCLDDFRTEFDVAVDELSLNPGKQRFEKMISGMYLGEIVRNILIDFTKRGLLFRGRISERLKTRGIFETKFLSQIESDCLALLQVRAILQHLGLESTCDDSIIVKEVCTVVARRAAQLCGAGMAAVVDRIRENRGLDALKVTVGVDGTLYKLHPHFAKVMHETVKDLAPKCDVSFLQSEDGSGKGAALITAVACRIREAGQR

[2] = target: voltage-dependent anion channel 1 (VDAC1) (human (endogenous in A2780)) (UniProt P21796); assay: co-IP; A2780 cells transfected with wt-p62 or ΔUBA-p62, cisplatin 5 μg/mL 6 h; NP40 lysis buffer; immunoprecipitation with anti-VDAC1 and protein G agarose, blot anti-p62 and anti-VDAC1

- binding [1]: binds
- binding [2]: binds
Substance: wild-type p62 (pcDNA3.1-p62) (from UniProt Q13501 1-440)

Source: publication PMC8070143
